Drawing on publication PMC4560694, this text covers binding for one substance.

These are yes or no findings as the source states them, for the method shown. Binding can be weak; no strength is given. Sequences can lack the tags named with a protein.

This test has as its target T1, GAL4 DNA-binding domain:Pi04089 fusion (pDEST32-Pi04089) (Phytophthora infestans) (UniProt D0N0I9).
T1 sequence: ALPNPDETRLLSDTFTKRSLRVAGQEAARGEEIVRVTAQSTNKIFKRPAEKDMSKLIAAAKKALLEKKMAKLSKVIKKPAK
The experiment in a line: two-hybrid.

Consider “GAL4 activation domain fusion of StKRBP1 (prey) (from UniProt M1CGA4)”, for which the binding entry was “binds”.
